These are yes or no findings as the source states them, for the method shown. In cells and extracts the contact can be indirect. Some results given as binding are weak or reduced against the parent protein; the word gives no strength.

In this assay the target is VLDLRLBD–Fc (human) (UniProt P98155). Briefly: pull-down.

For “receptor-associated protein (RAP) (from UniProt P30533 35-353)”, the binding result is on record as “binds”.

Source of the values: article PMC11324528.
